Article PMC6925144, “A prospective compound screening contest identified broader inhibitors for Sirtuin 1” (Scientific Reports, 2019)
Over roughly 3,200 compounds, “TSA(without NAD+) / Primary screening (TSA) / delta Tm (K)” has its median near -0.07; the highest 2% begin near 0.37. Some of the results follow.

Sequences of proteins named here, by UniProt entry; tags and fusion partners are left off. Residues count along the entry.
UniProt Q96EB6, 2-747 limits assumed: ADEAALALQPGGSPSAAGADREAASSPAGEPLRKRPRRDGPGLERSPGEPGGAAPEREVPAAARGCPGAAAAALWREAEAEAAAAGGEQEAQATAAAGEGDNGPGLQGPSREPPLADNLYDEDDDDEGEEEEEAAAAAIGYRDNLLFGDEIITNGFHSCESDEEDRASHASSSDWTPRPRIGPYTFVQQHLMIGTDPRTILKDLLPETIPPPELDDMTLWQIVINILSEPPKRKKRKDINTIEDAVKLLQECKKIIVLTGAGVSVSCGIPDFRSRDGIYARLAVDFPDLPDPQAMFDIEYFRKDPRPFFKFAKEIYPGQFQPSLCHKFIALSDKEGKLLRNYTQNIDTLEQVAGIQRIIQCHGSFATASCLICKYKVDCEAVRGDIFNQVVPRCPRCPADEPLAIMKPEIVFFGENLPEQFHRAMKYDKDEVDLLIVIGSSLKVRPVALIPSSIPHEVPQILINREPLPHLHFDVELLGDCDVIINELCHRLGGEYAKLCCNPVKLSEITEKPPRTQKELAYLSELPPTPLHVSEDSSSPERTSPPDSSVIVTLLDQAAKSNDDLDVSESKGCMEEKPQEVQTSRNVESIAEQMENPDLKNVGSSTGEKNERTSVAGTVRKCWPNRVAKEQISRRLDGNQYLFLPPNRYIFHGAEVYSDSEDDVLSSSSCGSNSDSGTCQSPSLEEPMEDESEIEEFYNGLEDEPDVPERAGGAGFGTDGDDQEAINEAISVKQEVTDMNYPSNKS

Biological target: NAD-dependent deacetylase Sirtuin 1 (human, UniProt Q96EB6)
Assay: primary screen, delta tm
Set-up: single well (n = 1)
Details: 10 µM
How it was run: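 Thermal shift of Sirtuin 1 measured without NAD+, compound at 10 µM (n = 1); value is ΔTm, with hits defined as ΔTm > 0.45 K or < −1.5 K. Hits retested at 5, 10, 20 µM (n = 4) and counterscreened on bovine carbonic anhydrase and ABL1 SH2 domain.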

| SMILES | TSA(without NAD+) / Primary screening (TSA) / delta Tm (K) |
| --- | --- |
| CCOc1ccc2oc(C(=O)NN3C(C)CCCC3C)c(C)c2c1 (stereo not drawn) | -0.08 K |
| COc1ccc(C(=O)OCC(=O)NC(Cc2ccccc2)C(C)=O)cc1S(=O)(=O)N1CCCC1 (stereo not drawn) | 0.22 K |
| O=C(/C=C/c1ccc(S(=O)(=O)N2CCc3ccccc32)cc1)Nc1cccc(S(=O)(=O)NCc2ccco2)c1 | 0.36 K |
| NC(=O)C1CCCN1Cc1nc2cc(Br)cnc2[nH]1 (stereo not drawn) | -0.03 K |
| Cc1ccc2nc(CSc3nnc(NCc4ccco4)s3)cc(=O)n2c1 | 0.12 K |
| CN(C)c1ccc(C=C2C(=O)NC(=S)NC2=O)cc1 | -0.24 K |
| COC(=O)C(CNC(=O)c1ccc2nccn2c1)c1ccc(F)cc1 (stereo not drawn) | 0.08 K |
| CC1CC(C)(C)CC2(C1)NC(=O)N(CC(=O)Nc1ccc(C(N)=O)cc1)C2=O (stereo not drawn) | 0.02 K |
| CN(C(=O)CSc1nc(-c2cccs2)cc(C(F)(F)F)c1C#N)C1CCS(=O)(=O)C1 (stereo not drawn) | -0.32 K |
| O=C1CCCN1c1cccc(NS(=O)(=O)c2cccc(F)c2)c1 | -0.02 K |
| O=C(CCc1ccccc1F)NCc1cccc(NC(=O)c2ccncc2)c1 | -0.12 K |
| Cc1ccc(N(C)S(=O)(=O)c2cccc(C(=O)NNC(=O)CC34CC5CC(CC(C5)C3)C4)c2)cc1 | 0.45 K |
| Cc1cc(CC(=O)N2CCC3(CCC3)C2)n[nH]1 | -0.04 K |
| CCCCCCC(C)NN (stereo not drawn) | -0.15 K |
| NC(=O)c1ccc(NC(=O)NCc2ccnc3ccccc23)cc1Cl | -0.07 K |
| CON(C)C(=O)c1[nH]c2ccc(C)cc2c1C | -0.53 K |
| O=C1/C(=C/c2cc3c(cc2Br)OCO3)Oc2cc(O)ccc21 | 0.16 K |
| O=C(NCc1ccc(-n2cccn2)nc1)c1ccc(/C=C/c2ccc3ccccc3n2)cc1 | -0.12 K |
| Cc1c2c(nc3c1oc1ccccc13)CCCCCCCCCC2 | 0.18 K |
| CCCN(C(=O)c1ccc(Oc2ccccc2)cc1)C1CCS(=O)(=O)C1 (stereo not drawn) | -0.07 K |
| O=C(NCc1ccc(N2CCCC2)cc1)c1csc([N+](=O)[O-])c1 | -0.03 K |
| CC(c1ccco1)N(C)CC(=O)N1CCC(C(N)=O)CC1 (stereo not drawn) | -0.12 K |
| Cc1ccc(Cl)cc1NC(=O)CC#N | 0.07 K |
| CCc1ccc(C(Nc2ccc3nnnn3n2)c2cccc(F)c2)cc1 (stereo not drawn) | -0.07 K |

| SMILES | TSA(without NAD+) / Primary screening (TSA) / delta Tm (K) |
| --- | --- |
| Cn1cnnc1Sc1ccc(Cl)cc1NC(=O)c1cnc2ccccc2n1 | -0.03 K |
| COC(=O)c1cn(CC(=O)NCCc2cccs2)c2ccccc12 | 0.09 K |
| NC(=O)c1c(NC(=O)CSc2nnc(N3CCCC3)n2CC2CCCO2)sc2c1CCCC2 (stereo not drawn) | -0.03 K |
| CN(c1ccc(C(N)=O)cc1)S(=O)(=O)c1ccccc1 | -0.31 K |
| CC(=O)Nc1ccc(NCc2nnc3n(C)c(=O)c4ccccc4n23)cc1Cl | 0.08 K |
| Cc1ccc(C(=O)NC(C)c2nc(C)c(C(=O)O)s2)s1 (stereo not drawn) | -0.12 K |
| CCOc1ccc(C(=O)NCCc2ccc(S(N)(=O)=O)cc2)cc1 | 0.09 K |
| Cc1cnn(CCNCc2coc(-c3ccccc3Cl)n2)c1 | -0.12 K |
| O=C(COc1ccccc1-c1ccccc1)Nc1cccc(S(=O)(=O)NCc2ccco2)c1 | 0.13 K |
| Cc1ccc(NC(=O)C(OC(=O)C23CC4CC(CC(O)(C4)C2)C3)c2ccccc2)c([N+](=O)[O-])c1 (stereo not drawn) | 0.07 K |
| O=C(Nc1cccc(S(=O)(=O)NCc2ccco2)c1)c1ccccc1OCc1ccccc1Cl | 0.06 K |
| CCS(=O)(=O)Nc1ccc(C(C)NCc2cnn(C)c2C)cc1 (stereo not drawn) | -0.14 K |
| CC(CN1CCOCC1)NC(=O)C(Cc1ccccc1)n1cnnn1 (stereo not drawn) | -0.23 K |
| CS(=O)(=O)c1ccc(NC(=O)c2ccccc2SCC(=O)NC23CC4CC(CC(C4)C2)C3)cc1 | -0.03 K |
| CCOc1ccc(Oc2ccc(NC(=O)CNC(=O)CC34CC5CC(CC(C5)C3)C4)cc2)cc1 | 0.38 K |
| O=c1c2ccccc2ncn1CC(O)c1ccccc1Cl (stereo not drawn) | -0.17 K |
| Cc1nc(-c2ccc(CNC(=O)c3cccc([N+](=O)[O-])c3)cc2)cs1 | 0.09 K |
| Cc1nc(-c2ccccn2)[nH]c(=O)c1CC(=O)NCc1cccc(Oc2ccccc2)c1 | 0.09 K |
| Cc1nc(SCC(=O)N(C)C2CCCc3ccccc32)c2ccccc2n1 (stereo not drawn) | -0.22 K |
| Cc1cccc(C)c1OC(=O)c1ccc(C#N)cc1 | -0.12 K |
| COC(=O)c1cc2ccccc2c(CN(C)Cc2ccc(C(N)=O)cc2)c1O | 0.06 K |
| NNc1ncnc2c1cnn2-c1ccccc1 | -0.05 K |
| NC(=O)c1ccc(NC(=O)COC(=O)COc2ccc3c(c2)CCC3)cc1 | -0.11 K |
| O=C1NC(=S)NC(=O)C1=NNc1c(F)cccc1F | -0.08 K |

Three structures out of the list, arranged by number of heavy atoms, ascending:

| SMILES | TSA(without NAD+) / Primary screening (TSA) / delta Tm (K) |
| --- | --- |
| CC(CN1CCOCC1)NC(=O)C(Cc1ccccc1)n1cnnn1 (stereo not drawn) | -0.23 K |
| O=C(COc1ccccc1-c1ccccc1)Nc1cccc(S(=O)(=O)NCc2ccco2)c1 | 0.13 K |
| CCOc1ccc(Oc2ccc(NC(=O)CNC(=O)CC34CC5CC(CC(C5)C3)C4)cc2)cc1 | 0.38 K |

Next part

| SMILES | TSA(without NAD+) / Primary screening (TSA) / delta Tm (K) |
| --- | --- |
| COc1cc(CN(C)C(=O)CN2C(=O)COc3ccccc32)ccc1OCc1ccccc1 | 0.13 K |
| CC1CCc2c(sc3nc4c5ccccc5c5nnnn5n4c(=O)c23)C1 (stereo not drawn) | -0.17 K |
| COc1ccc(C)cc1N1CC(C(=O)N2CCC(OC)CC2)CC1=O (stereo not drawn) | 0.07 K |
| COC(=O)Cn1cnc2c(N)ncnc21 | -0.14 K |
| O=C(/C=C/c1ccc2c(c1)OCO2)N1CCCC1c1nc2ccccc2s1 (stereo not drawn) | 0.05 K |
| COc1cccc(NC(=O)COc2ccc(C(=O)NC(C)C34CC5CC(CC(C5)C3)C4)cc2)c1 (stereo not drawn) | 0.03 K |
| O=c1c2ccccc2ncn1CC(O)c1cccc(F)c1 (stereo not drawn) | -0.13 K |
| CCOC(=O)N(C)CC(=O)Nc1ccc(-n2cnc3ccccc32)nc1 | 0.12 K |
| CC[C@@H]1C[C@H]1CN | -0.03 K |
| COc1cccc(C2C(C(=O)/C=C/c3ccco3)=C(O)C(=O)N2CCCN2CCOCC2)c1OC (stereo not drawn) | 0.12 K |
| Cc1cnc(C(=O)Nc2ccc(I)cc2C)cn1 | -0.23 K |
| NC(=O)C1(c2ccccc2)CCNC1 (stereo not drawn) | -0.08 K |
| CC1COCCN1c1ncnc2ccsc12 (stereo not drawn) | -0.12 K |
| Cc1ccccc1COC(=O)/C(=C\c1ccccc1)n1nnnc1C | -0.24 K |
| O=c1cc(N2CCc3ccccc3CC2)nc2ccccn12 | -0.24 K |
| NC(=O)C1CCCN(c2ncnc3cc(Cl)ccc23)C1 (stereo not drawn) | 0.08 K |
| Nc1nc(CN2CC(CO)Oc3ccccc32)nc(Nc2ccc(F)cc2)n1 (stereo not drawn) | -0.08 K |
| CC1CN(S(=O)(=O)c2cccc(C(=O)OCC(=O)COC(=O)c3cccc(S(=O)(=O)N4CC(C)OC(C)C4)c3)c2)CC(C)O1 (stereo not drawn) | -0.11 K |
| N#CCc1c[nH]c2ccc(C(N)=O)cc12 | -0.04 K |
| Cc1ccc2c(COc3ncnc4sc5c(c34)CCC5)cc(=O)oc2c1C | -0.13 K |
| CC1CCc2[nH]c3ccc(C(=O)O)cc3c2C1 (stereo not drawn) | -0.13 K |
| Cc1sc2ncnc(N3CCC(C(=O)Nc4nn5cnnc5s4)CC3)c2c1C | -0.03 K |
| O=C(OCC(=O)C12CC3CC(CC(C3)C1)C2)c1nn(Cc2ccccc2)c(=O)c2ccccc12 | -0.12 K |
| Cc1cc(C(=O)O)c2ccccc2n1 | -0.02 K |

| SMILES | TSA(without NAD+) / Primary screening (TSA) / delta Tm (K) |
| --- | --- |
| NC(=O)C1CCN(C(=O)c2ccn(-c3ccc(F)cc3)n2)C1 (stereo not drawn) | 0.02 K |
| Cc1ccc(NC(=O)c2ccc(Cl)nc2Cl)cc1Cl | -0.22 K |
| CN(C)C(C)(C)CNCc1c[nH]nc1-c1ccc2c(c1)OCCO2 | -0.08 K |
| COc1cccc(/C=N/c2ccc(C)cc2C)c1O | 0.02 K |
| Cc1ccc(OCc2nc3ccccc3n2Cc2ccccc2)cc1 | -0.15 K |
| CCOc1ccc(C(NC(=O)c2cccc(C(N)=O)c2)c2ccccc2)cc1 (stereo not drawn) | -0.13 K |
| Cc1c(C(=O)C2=C(O)C(=O)N(CCCN3CCOCC3)C2c2ccco2)cnn1-c1ccccc1 (stereo not drawn) | -0.18 K |
| CC(C)(C)c1ccccc1NC(=O)c1ccc(S(=O)(=O)N2CCCC2)cc1 | -0.07 K |
| CCOC(=O)CN | -0.12 K |
| O=C(Nc1cccc(S(=O)(=O)N2CCOCC2)c1)c1cn(-c2ccccc2)nc1-c1ccc(Cl)cc1 | 0.58 K |
| CC(=O)Nc1cccc2c1CCN(c1cc(=O)n3ccccc3n1)C2 | -0.23 K |
| C1CCCC2(CC1)CCNC2 | 0.03 K |
| Cc1cc(C)c2c(n1)sc1c(N3CCOCC3)ncnc12 | -0.07 K |
| Cc1ccc(N(C)S(=O)(=O)c2cccc(C(=O)NNC(=O)c3ccncc3)c2)cc1 | -0.08 K |
| CN(C)c1ccnc(N2CCCC(N3CCNC3=O)C2)n1 (stereo not drawn) | -0.18 K |
| O=C(Nc1ccc2[nH]c(=O)[nH]c2c1)c1cc(S(=O)(=O)NCC2CCCO2)ccc1Br (stereo not drawn) | -0.15 K |
| Nc1ccc(-n2ncc3c(=O)[nH]cnc32)cc1 | 0.02 K |
| O=C1CC[C@@H](Nc2cnc3cc(F)c(F)cc3n2)[C@H](c2ccccc2)N1 | -0.18 K |
| O=c1cc(N2CCC(Nc3ccccc3)CC2)nc2ccccn12 | -0.04 K |
| COC(=O)c1cc(-c2csc(NC(=O)c3cccc(NC(=O)c4cnoc4C)c3)n2)c[nH]1 | 0.46 K |
| COc1ccc(OCCN(C)C(=O)c2ccc(NC3=NS(=O)(=O)c4ccccc43)cc2)cc1 | 0.09 K |

Random excerpt: 2 records from the list, in no set order.

| SMILES | TSA(without NAD+) / Primary screening (TSA) / delta Tm (K) |
| --- | --- |
| O=C(/C=C/c1ccc(S(=O)(=O)N2CCc3ccccc32)cc1)Nc1cccc(S(=O)(=O)NCc2ccco2)c1 | 0.36 K |
| CCOc1ccc(C(=O)NCCc2ccc(S(N)(=O)=O)cc2)cc1 | 0.09 K |
